PubChem BioAssay AID652259 | Drosophila RNAi Screening Center, 2013
The deposit covers about 22,000 reagents; below is an unselected part of those with a known target gene and a result. Of all reagents, 233 (1.1%) were called active. 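Light values are raw, unnormalised plate reads; the ratio scores behind the reporter calls were not deposited.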 Reagent sequences are not shown. The record does not give: the amount of reagent, the time to read-out, the dose of the treatment.

Screen: 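Knock-downs that push a Wingless-driven reporter up or down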 (primary screen)
System: Drosophila clone 8 imaginal disc epithelial cells
Knock-down reagent: long dsRNA against Drosophila genes
Conditions: pathway stimulated by co-transfected Wingless expression plasmid
Measured: 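Dual luciferase reads per well after Wingless plasmid stimulation: reporter firefly light and Renilla control light; activity is firefly divided by Renilla, a ratio not deposited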
Direction: firefly reporter light: higher = more Wg reporter light, before normalisation; Renilla control light: higher = more transfected or surviving cells
Rule for the call: 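a knock-down is a candidate when at least two out of four statistical tests show it departing from its plate mean; one test alone signals a weak candidate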
Calls: active = candidate regulator (raises or lowers reporter); inactive = not a candidate

Which result is listed for dj (don juan) [DRSC12625]?
firefly reporter light, replicate 1: 13814; Renilla control light, replicate 1: 1796; activity call: inactive

For CG12951 [DRSC14579], what does the deposit list?
firefly reporter light, replicate 1: 11728; Renilla control light, replicate 1: 2017; activity call: inactive

For Ih (I[[h]] channel) [DRSC05477], what does the deposit list?
firefly reporter light, replicate 1: 31752; Renilla control light, replicate 1: 26404; activity call: inactive

For Ih (I[[h]] channel) [DRSC07445], how do the results read?
firefly reporter light, replicate 1: 13269; Renilla control light, replicate 1: 3665; activity call: inactive

With Ih (I[[h]] channel) [DRSC22956], what does the deposit list?
firefly reporter light, replicate 1: 6.39e5; firefly reporter light, replicate 2: 7.28e5; Renilla control light, replicate 1: 2.93e5; Renilla control light, replicate 2: 2.91e5; activity call: inactive

With Tmtc2 (Transmembrane O-mannosyltransferase targeting cadherins 2) [DRSC00272], what was measured?
firefly reporter light, replicate 1: 9408; Renilla control light, replicate 1: 2960; activity call: inactive

What did the screen give for Agpat1 (1-Acylglycerol-3-phosphate O-acyltransferase 1) [DRSC19879]?
firefly reporter light, replicate 1: 15852; Renilla control light, replicate 1: 6998; activity call: inactive

With Agpat1 (1-Acylglycerol-3-phosphate O-acyltransferase 1) [DRSC19880], what was measured?
firefly reporter light, replicate 1: 19803; Renilla control light, replicate 1: 10602; activity call: inactive

What did the screen give for COX6AL (Cytochrome c oxidase subunit 6A-like) [DRSC21454]?
firefly reporter light, replicate 1: 5.97e5; firefly reporter light, replicate 2: 5.83e5; Renilla control light, replicate 1: 2.66e5; Renilla control light, replicate 2: 2.24e5; activity call: inactive

For Oamb (Octopamine receptor in mushroom bodies) [DRSC13433], how do the results read?
firefly reporter light, replicate 1: 3149; Renilla control light, replicate 1: 1888; activity call: inactive

With Oamb (Octopamine receptor in mushroom bodies) [DRSC15120], what was measured?
firefly reporter light, replicate 1: 20266; Renilla control light, replicate 1: 4317; activity call: inactive

With Oamb (Octopamine receptor in mushroom bodies) [DRSC16763], how do the results read?
firefly reporter light, replicate 1: 19889; Renilla control light, replicate 1: 5756; activity call: inactive

What did the screen give for Idgf4 (Imaginal disc growth factor 4) [DRSC18675]?
firefly reporter light, replicate 1: 15042; Renilla control light, replicate 1: 8517; activity call: inactive

What is on record for Or10a (Odorant receptor 10a) [DRSC20264]?
firefly reporter light, replicate 1: 19685; Renilla control light, replicate 1: 11559; activity call: inactive

Reprinted from the listing, 2 entries:
Ih (I[[h]] channel) [DRSC07445]: firefly reporter light, replicate 1 = 13269; Renilla control light, replicate 1 = 3665; activity call = inactive
Ih (I[[h]] channel) [DRSC22956]: firefly reporter light, replicate 1 = 6.39e5; firefly reporter light, replicate 2 = 7.28e5; Renilla control light, replicate 1 = 2.93e5; Renilla control light, replicate 2 = 2.91e5; activity call = inactive

The results go on:
With Fmr1 (Fragile X messenger ribonucleoprotein 1) [DRSC16674], what was measured?
firefly reporter light, replicate 1: 18625; Renilla control light, replicate 1: 4136; activity call: inactive

For Pex23 (Peroxin 23) [DRSC10323], what was measured?
firefly reporter light, replicate 1: 5095; Renilla control light, replicate 1: 1341; activity call: inactive

What is on record for Pex23 (Peroxin 23) [DRSC10645]?
firefly reporter light, replicate 1: 9946; Renilla control light, replicate 1: 4196; activity call: inactive

For Eip63E (Ecdysone-induced protein 63E) [DRSC08658], how do the results read?
firefly reporter light, replicate 1: 7552; Renilla control light, replicate 1: 2866; activity call: inactive

With Catsup (Catecholamines up) [DRSC03288], how do the results read?
firefly reporter light, replicate 1: 2697; firefly reporter light, replicate 2: 3889; Renilla control light, replicate 1: 707; Renilla control light, replicate 2: 1811; activity call: inactive

With CG6870 [DRSC02998], what does the deposit list?
firefly reporter light, replicate 1: 2497; firefly reporter light, replicate 2: 9505; Renilla control light, replicate 1: 1034; Renilla control light, replicate 2: 3850; activity call: inactive

For CG31957 [DRSC00207], what was measured?
firefly reporter light, replicate 1: 18200; Renilla control light, replicate 1: 9393; activity call: inactive

For CG7094 [DRSC03005], what does the deposit list?
firefly reporter light, replicate 1: 2073; firefly reporter light, replicate 2: 4691; Renilla control light, replicate 1: 864; Renilla control light, replicate 2: 2981; activity call: inactive

What did the screen give for CG11878 [DRSC14422]?
firefly reporter light, replicate 1: 12707; Renilla control light, replicate 1: 10787; activity call: inactive

How did the screen score cac (cacophony) [DRSC19743]?
firefly reporter light, replicate 1: 19089; Renilla control light, replicate 1: 9360; activity call: inactive

Which result is listed for cac (cacophony) [DRSC20354]?
firefly reporter light, replicate 1: 1673; firefly reporter light, replicate 2: 6416; Renilla control light, replicate 1: 864; Renilla control light, replicate 2: 1888; activity call: inactive
